Like-named read-outs stand apart in the source and are kept apart here. No constants are given. Whether binding was seen depends on the method and setting. Binding seen in cells or lysates may run through a third protein. These calls come from enrichment with a bait or labelling near it, and not all partners need be listed.

Amino acid sequences for entries named in this document (tags omitted). Residues count along the entry.
UniProt P62138: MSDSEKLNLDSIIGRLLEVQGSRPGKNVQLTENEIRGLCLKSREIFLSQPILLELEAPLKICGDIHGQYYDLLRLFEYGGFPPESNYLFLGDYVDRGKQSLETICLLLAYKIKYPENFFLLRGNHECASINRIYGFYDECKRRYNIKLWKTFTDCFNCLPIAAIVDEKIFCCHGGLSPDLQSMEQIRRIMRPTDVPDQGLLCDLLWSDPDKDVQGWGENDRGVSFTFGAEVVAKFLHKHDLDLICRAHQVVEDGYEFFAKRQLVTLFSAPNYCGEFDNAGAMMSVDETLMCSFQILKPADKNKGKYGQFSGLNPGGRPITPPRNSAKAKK
UniProt P31424, residues 21-1203: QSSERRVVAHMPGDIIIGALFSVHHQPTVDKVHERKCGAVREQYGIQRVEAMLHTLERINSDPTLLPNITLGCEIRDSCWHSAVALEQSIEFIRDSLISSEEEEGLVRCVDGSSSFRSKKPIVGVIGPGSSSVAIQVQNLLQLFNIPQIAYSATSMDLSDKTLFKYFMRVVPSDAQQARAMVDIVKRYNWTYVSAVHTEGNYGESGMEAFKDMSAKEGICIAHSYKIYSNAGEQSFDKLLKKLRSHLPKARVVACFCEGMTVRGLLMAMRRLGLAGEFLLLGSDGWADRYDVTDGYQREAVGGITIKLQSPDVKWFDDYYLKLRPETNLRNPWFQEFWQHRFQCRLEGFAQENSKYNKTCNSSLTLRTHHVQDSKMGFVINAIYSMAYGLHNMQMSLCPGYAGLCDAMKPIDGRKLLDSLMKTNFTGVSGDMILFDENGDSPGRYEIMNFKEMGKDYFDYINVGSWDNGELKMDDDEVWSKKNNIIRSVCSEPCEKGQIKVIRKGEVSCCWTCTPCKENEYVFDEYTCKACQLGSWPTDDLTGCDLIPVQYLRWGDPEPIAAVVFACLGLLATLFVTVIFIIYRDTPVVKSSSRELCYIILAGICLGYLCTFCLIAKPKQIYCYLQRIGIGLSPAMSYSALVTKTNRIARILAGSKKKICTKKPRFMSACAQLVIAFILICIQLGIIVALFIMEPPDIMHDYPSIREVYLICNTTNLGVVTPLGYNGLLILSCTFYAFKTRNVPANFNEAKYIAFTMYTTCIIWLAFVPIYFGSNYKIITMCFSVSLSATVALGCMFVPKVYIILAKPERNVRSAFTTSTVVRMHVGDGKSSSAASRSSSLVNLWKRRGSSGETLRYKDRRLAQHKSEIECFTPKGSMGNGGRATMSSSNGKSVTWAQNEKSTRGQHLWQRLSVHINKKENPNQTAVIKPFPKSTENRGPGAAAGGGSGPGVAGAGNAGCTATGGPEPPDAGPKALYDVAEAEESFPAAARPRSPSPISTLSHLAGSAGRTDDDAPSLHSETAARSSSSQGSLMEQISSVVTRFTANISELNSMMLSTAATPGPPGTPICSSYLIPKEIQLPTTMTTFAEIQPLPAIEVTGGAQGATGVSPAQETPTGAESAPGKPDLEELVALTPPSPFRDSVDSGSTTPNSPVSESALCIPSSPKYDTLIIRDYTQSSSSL
UniProt P18266: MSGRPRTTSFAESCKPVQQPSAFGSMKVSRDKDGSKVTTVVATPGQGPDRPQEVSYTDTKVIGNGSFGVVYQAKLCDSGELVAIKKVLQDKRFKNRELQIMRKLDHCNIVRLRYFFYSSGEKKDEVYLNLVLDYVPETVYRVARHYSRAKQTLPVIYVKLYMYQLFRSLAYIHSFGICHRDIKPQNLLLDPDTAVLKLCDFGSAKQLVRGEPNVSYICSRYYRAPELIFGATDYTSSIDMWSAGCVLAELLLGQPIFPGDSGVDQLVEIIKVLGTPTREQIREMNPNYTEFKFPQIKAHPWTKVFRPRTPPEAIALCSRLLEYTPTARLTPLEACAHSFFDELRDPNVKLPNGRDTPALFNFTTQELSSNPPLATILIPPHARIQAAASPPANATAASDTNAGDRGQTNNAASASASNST
UniProt Q62696: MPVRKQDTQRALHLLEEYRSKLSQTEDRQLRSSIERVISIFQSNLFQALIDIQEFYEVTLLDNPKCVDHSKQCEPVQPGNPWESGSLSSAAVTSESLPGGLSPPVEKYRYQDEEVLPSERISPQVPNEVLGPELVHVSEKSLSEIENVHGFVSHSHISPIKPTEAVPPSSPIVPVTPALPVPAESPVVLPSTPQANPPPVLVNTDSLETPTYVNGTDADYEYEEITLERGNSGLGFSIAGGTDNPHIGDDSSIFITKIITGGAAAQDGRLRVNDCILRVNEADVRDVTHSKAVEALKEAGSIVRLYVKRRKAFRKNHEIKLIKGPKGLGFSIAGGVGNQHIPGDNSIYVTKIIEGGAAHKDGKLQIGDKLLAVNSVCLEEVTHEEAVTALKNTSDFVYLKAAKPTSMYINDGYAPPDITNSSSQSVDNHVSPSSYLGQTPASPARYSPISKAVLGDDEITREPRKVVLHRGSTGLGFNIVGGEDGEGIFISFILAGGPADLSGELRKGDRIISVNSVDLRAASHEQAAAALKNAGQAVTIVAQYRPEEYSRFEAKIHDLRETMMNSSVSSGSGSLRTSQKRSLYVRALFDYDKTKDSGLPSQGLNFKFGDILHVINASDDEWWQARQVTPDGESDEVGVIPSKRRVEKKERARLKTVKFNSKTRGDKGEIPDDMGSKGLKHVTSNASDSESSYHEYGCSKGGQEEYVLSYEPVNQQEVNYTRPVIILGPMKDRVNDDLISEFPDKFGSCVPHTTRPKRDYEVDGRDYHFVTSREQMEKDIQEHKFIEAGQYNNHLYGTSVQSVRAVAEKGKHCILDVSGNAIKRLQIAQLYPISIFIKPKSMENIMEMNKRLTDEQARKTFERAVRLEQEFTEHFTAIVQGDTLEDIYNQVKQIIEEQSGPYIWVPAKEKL
UniProt Q9Z214: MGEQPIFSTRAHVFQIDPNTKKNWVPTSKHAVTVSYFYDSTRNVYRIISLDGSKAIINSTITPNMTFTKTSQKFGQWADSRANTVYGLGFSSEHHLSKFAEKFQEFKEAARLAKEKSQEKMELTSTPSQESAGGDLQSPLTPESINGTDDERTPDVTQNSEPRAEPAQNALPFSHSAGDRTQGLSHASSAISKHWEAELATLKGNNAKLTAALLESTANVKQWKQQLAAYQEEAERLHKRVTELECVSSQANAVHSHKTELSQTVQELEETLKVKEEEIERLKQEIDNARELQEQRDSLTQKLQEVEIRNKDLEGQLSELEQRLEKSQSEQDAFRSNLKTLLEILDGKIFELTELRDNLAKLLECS
UniProt P26772: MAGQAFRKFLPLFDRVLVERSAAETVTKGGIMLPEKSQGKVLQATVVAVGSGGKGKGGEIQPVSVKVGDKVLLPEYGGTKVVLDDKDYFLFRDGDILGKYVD
UniProt P17659: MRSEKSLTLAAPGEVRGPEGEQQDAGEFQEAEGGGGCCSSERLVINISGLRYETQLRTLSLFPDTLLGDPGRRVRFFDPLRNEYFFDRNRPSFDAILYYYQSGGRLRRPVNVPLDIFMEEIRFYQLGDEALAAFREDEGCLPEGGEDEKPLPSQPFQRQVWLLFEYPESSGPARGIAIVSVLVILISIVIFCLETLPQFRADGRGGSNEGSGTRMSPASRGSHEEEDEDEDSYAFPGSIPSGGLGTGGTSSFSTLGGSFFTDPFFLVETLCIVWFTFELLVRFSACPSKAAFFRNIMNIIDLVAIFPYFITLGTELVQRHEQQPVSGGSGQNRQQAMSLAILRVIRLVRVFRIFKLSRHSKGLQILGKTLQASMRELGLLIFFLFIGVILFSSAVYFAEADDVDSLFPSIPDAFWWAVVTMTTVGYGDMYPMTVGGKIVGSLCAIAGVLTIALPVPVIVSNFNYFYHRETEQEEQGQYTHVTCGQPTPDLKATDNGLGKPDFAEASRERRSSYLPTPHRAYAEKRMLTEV
UniProt P15385: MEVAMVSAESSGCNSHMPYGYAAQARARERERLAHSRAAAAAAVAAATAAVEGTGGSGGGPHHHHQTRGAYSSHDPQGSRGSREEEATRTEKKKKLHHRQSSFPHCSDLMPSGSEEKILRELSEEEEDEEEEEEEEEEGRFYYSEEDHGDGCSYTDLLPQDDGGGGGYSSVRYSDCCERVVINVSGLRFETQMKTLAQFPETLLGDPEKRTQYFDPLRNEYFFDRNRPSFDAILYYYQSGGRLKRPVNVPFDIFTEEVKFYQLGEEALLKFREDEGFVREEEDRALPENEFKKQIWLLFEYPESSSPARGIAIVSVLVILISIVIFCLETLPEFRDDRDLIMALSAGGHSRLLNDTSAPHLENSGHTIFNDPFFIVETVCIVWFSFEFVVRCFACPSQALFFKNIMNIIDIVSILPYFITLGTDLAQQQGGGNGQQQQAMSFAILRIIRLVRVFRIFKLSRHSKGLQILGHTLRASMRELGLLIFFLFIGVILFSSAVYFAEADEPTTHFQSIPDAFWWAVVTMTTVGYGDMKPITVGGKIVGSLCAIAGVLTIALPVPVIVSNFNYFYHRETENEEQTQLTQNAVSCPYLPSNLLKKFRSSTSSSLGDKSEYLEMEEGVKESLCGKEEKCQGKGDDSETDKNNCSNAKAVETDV
UniProt P63088: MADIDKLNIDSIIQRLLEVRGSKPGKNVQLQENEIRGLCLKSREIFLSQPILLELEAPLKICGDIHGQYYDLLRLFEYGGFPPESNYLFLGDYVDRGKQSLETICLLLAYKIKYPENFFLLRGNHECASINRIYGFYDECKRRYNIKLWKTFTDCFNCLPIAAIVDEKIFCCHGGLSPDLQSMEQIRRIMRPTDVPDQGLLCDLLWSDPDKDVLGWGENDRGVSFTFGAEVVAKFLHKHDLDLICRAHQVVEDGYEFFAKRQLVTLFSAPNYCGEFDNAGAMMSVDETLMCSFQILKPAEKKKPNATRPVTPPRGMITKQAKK
UniProt Q62976: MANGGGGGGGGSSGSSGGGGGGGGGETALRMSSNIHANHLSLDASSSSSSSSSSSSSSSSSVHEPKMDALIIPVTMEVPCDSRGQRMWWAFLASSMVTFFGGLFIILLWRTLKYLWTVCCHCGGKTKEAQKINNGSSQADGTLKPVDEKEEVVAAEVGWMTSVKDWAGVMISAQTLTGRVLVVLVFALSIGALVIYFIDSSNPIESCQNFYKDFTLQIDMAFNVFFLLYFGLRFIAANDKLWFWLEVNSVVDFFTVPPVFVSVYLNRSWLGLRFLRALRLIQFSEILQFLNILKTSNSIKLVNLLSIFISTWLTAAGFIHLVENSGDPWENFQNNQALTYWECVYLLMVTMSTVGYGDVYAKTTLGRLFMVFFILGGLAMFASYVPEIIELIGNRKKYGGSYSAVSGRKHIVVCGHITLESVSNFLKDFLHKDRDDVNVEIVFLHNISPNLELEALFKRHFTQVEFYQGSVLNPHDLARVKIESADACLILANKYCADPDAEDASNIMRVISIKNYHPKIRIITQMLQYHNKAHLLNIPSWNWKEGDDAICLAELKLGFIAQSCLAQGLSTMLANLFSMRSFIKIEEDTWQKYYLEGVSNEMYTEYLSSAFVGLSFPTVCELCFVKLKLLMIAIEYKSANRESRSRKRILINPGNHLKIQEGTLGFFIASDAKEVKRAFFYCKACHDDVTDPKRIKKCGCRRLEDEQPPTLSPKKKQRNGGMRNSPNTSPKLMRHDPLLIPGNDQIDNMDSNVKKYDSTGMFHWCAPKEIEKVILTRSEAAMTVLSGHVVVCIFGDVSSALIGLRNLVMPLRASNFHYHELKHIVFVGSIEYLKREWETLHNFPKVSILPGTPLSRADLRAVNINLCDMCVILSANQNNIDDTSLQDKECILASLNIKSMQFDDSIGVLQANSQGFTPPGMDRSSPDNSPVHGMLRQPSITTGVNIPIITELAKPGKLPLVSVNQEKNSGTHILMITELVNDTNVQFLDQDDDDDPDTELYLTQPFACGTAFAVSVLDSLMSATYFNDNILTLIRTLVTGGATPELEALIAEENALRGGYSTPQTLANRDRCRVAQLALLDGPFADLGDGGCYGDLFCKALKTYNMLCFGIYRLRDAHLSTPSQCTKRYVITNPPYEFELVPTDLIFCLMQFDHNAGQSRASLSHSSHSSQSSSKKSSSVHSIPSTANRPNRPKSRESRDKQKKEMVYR

Experiment in all cases: affinity purification with mass spectrometry; endogenous baits immunoprecipitated with antibodies crosslinked to Protein A or G beads from hippocampus homogenates of rats injected with saline or PCP (1.25 mg/kg, 26 min), mixed 1:1 with 15N rat brain homogenate; 4 mM HEPES pH 7, 200 mM NaCl, 0.5% Triton, 0.5% NP-40, 0.01% sodium deoxycholate; 4 °C; normal serum controls; interactors called by SAINT at 5% FDR; SILAM quantitation of PCP against saline

Assay [1] concerns the target Grin2b (rat (endogenous in hippocampus)) (UniProt Q00960).
Assay [2] deals with Ppp1ca (rat (endogenous in hippocampus)) (UniProt P62138).
The target in assay [3] is Grm5 (rat (endogenous in hippocampus)) (UniProt P31424).
Assay [4] has as its target Gsk3b (rat (endogenous in hippocampus)) (UniProt P18266).
Assay [5] concerns the target Map2k1 (rat (endogenous in hippocampus)) (UniProt Q01986).
Assay [6] concerns the target Grm5 (rat (endogenous in hippocampus)) (UniProt P31424). This is another data set of the same source.
Assay [7] has as its target Ppp1ca (rat (endogenous in hippocampus)) (UniProt P62138). The source holds these as a separate data set.
Assay [8] concerns the target Gsk3b (rat (endogenous in hippocampus)) (UniProt P18266). The source holds these as a separate data set.

Dlg1 (from UniProt Q62696 1-911): the binding entry in assay [1] is on record as “binds”.
Turning to “Grin2a (from UniProt Q00959 23-1464) (receptor)”, in assay [1], the binding result is given as “binds”.
On to “Gsk3b (from UniProt P18266 1-420) (enzyme)”, for which the binding result in assay [2] is “binds”.
As for Homer1 (from UniProt Q9Z214 1-366), the binding result in assay [3] is “binds”.
Regarding Hspe1 (from UniProt P26772 1-102), the binding entry in assay [2] is recorded as “binds”.
Take Kcna6 (from UniProt P17659 1-530): the binding entry in assay [1] was “binds”.
The same measure, in the same setting: the same measure for “Potassium voltage-gated channel subfamily A member 4 (Kcna4) (from UniProt P15385 1-655)”: “binds”.
“Ppp1cc (from UniProt P63088 1-323) (enzyme)”: in assay [4], the binding entry is given as “binds”.
Take “calcium-activated potassium channel subunit alpha-1 (Kcnma1), endogenous (from UniProt Q62976 1-1209)”: in assay [3], the binding entry was “binds”.

B1: Syngap1 (protein, UniProt Q9QUH6 1-1308)
chain: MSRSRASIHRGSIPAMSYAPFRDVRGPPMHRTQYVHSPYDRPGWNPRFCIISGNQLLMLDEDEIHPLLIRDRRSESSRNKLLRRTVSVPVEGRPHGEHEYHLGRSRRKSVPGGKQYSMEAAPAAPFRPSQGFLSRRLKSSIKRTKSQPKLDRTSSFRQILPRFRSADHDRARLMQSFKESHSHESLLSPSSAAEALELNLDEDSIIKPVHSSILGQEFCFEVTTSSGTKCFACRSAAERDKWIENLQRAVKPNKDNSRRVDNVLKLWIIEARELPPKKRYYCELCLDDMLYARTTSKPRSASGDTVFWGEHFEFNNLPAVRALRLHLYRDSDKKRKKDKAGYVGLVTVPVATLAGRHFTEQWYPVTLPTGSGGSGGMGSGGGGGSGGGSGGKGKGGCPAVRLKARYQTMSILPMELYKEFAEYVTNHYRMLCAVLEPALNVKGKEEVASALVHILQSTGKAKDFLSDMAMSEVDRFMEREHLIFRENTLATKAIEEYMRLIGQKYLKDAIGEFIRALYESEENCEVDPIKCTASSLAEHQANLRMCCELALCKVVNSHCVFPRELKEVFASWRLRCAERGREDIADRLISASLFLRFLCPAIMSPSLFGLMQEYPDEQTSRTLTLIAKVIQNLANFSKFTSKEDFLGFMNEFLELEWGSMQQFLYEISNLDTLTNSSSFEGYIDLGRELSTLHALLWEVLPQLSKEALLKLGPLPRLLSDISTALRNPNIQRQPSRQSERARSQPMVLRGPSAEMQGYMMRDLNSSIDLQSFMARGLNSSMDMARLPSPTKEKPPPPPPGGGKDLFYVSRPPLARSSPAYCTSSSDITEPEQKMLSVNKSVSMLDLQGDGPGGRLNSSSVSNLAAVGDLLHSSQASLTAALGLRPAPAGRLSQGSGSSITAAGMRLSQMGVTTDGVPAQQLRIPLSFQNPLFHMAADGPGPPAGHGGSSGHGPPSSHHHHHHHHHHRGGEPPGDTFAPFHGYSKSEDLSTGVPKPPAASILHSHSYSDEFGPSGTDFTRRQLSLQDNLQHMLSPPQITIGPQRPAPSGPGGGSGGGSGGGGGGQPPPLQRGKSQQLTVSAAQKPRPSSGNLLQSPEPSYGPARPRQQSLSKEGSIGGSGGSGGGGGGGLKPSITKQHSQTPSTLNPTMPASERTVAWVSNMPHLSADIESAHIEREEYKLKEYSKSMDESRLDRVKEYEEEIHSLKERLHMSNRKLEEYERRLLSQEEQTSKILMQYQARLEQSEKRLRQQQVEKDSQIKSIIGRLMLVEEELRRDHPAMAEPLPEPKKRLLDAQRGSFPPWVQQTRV
Regarding B1, the binding entry in assay [5] is reported as “binds”.

B2: syntaxin family member Stx13 (protein, UniProt G3V7P1 1-274)
chain: MSYGPLDMYRNPGPSGPQPRDFNSIIQTCSGNIQRISQATAQIKNLMSQLGTKQDSSKLQENLQQFQHSTNQLAKETNELLKELGSLPLPLSASEQRQQKLQKERLMNDFSSALNNFQVVQRKVSEKEKESIARARAGSRLSAEDRQREEQLVSFDSHEEWNQMQSQEEEAAITEQDLELIKERETAIQQLEADILDVNQIFKDLAMMIHDQGDLIDSIEANVESSEVHVERASDQLQRAAYYQKKSRKKMCILVLVLSVIVTVLVVVIWVASK
For B2, in assay [6], the binding result is reported as “binds”.

B3: Ppp1r1b (aka DARPP-32) (protein, UniProt Q6J4I0 1-205)
chain: MDPKDRKKIQFSVPAPPSQLDPRQVEMIRRRRPTPALLFRVSEHSSPEEESSPHQRTSGEGHHPKSKRPNPCAYTPPSLKAVQRIAESHLQTISNLSENQASEEEDELGELRELGYPQEDDEEDEDEDEEEDEEEDSQAEVLKGSRGTAGQKLTSGQGLEGPWERPPPLDEPQRDGNSEDQGEGRATQSEPGEEPRHPTPPESGT
Turning to B3, the binding entry in assay [7] is reported as “binds”.

B4: Phactr3 (protein, UniProt Q6RFY2 1-517)
chain: MDQTPPARSEPLVSGIRTPPVRRNSKLATLGRIFKPWKWRKKKNEKLKQTTSALEKKMAGRQGREELIKQGLLEMMEQDSESKACSPKEGSQPAQSEPSAGEQETLTSEGVQPGSPSASGTDQASQDELLSSDAHPDDTAKMSSASSGEEADAGNLLPTTDEPSQEALSGSLDSPPRTLERSASQLPSPPLLPTPPPKASSKATKNVTGQAALFQGSSMKNNEPVLRGQLPTPTGSPHLTTVHRPLPPSRVIEELHRALATKHRQDSFQGRECRGSPKKRMDVRLSRTSSMERGKERDEAWSFDGASENKWTAAKDSEENKENLILSSELKDDLLLYQDEEALNDSIISGTLPRKCKKELLAVKLRNRPSKQELEDRNIFPRRTDEERQEIRQQIEMKLSKRLSQRPAVEELERRNILKQRNDQTEQEERREIKQRLTRKLNQRPTVDELRDRKILIRFSDYVEVARAQDYDRRADKPWTRLSAADKAAIRKELNEYKSNEMEVHASSKHLTRFHRP
In the case of B4, in assay [7], the binding result is reported as “binds”.

B5: Ubxn2b (protein, UniProt P0C627 1-331)
chain: MAEGGGAEPEEQERRSSRPRPPSARDLQLALAELYEDEMKCKSSKPDRSTATAFKSPRTPPLRLYSGDQEYGGLHIAQPPTGKIVNELFKEAREHGAVPLNEATRSSSDDKAKSFTGGGYRLGSSFYKRSEYIYGENQLQDVQILLRLWSNGFSLDDGELRPYSDPTNAQFLESVKRGEIPLELQRLVHGSQVSLDMEDHQDQEYIKPRLRFKAFSGEGQKLGSLTPEIVSTPSSPEEEDKSILNAAVLIDDSVPTTKIQIRLADGSRLIQRFNSTHRILDVRDFIVQSRPEFATTDFILVTSFPSKELTDESVTLQDADILNTVILQQLK
With B5, the binding entry in assay [7] was “binds”.

B6: Ppp1r2 (protein, UniProt P50411 1-205)
chain: MAASTASHRPIKGILKNKTSTTSSVVASAEQPRRTVEEELSKKSQKWDEMNILATYHPADKDYGLMKIDEPDTPYHNMIGDDEDVCSDSEGNEVMTPEILAKKLAAAEGSEPKFRTREQESSGEEDNDLSPEEREKKRQFEMKRKLHYNEGLNIKLARQLISKDLHDDDEDEEMSETADADSMNIEESNQGSTAGDHLQHKSQSS
B6: the binding entry in assay [8] and in assay [7] was “binds” each time.

The record behind these values is publication PMC13096421.
